{
  "source": "patent US20110110924A1",
  "about": "“Resistin as a Marker and Therapeutic Target for Cardiovascular Disease” (priority 2004, published 2011)",
  "system": "resistin mRNA in primary human macrophages",
  "assay": "Resistin mRNA expression in primary human macrophages (real time PCR)",
  "format": "cell-based",
  "conditions": "pre-treated with rosiglitazone 24 h, then LPS (1 μg/ml) and rosiglitazone 24 h",
  "experimental": "Peripheral blood mononuclear cells were isolated from whole blood of healthy donors following apheresis and elutriation. […] Cells were plated in 24 well plates at a density of 10^6 cells per well, allowed to adhere for 4 hours, then washed with Dulbecco's Modified Eagles Medium (DMEM) and further cultured in 10% FBS in DMEM supplemented with 5 ng/ml GM-CSF (Sigma) to promote macrophage differentiation. All experiments were performed after overnight equilibration with macrophage serum free medium (Gibco/Invitrogen) supplemented with 5 ng/ml GM-CSF. […] Adenovirus expressing activated IKK in pAD-easy™ vector with GFP and control vector were a generous gift from Steven Shoelson.\nRNA was isolated using RNeasy® Mini Kit (Qiagen), then subjected to DNAse digestion followed by reverse transcription (Invitrogen). mRNA transcripts were quantified by the dual-labeled fluorogenic probe method for real time PCR, using a Prism® 7900 thermal cycler and sequence detector (Perkin Elmer/ABI). […]\nThe cycle number at which the transcripts of the gene of interest was detectable (CT) was normalized to the cycle number of 36B4 detection, referred to as δ CT. The fold change of the gene of interest expression relative to the vehicle treated group was expressed as 2^− δδ^CT, in which δδ CT equals the δCT of the compound treated group minus δCT of the chosen control group, which was normalized to 1.",
  "note": "Entries after “also recorded” stand apart in the source; their conditions may differ. For at least one compound, name, drawing or mass did not settle the structure.",
  "data": [
    {"molecule": "CN(CCOc1ccc(CC2SC(=O)NC2=O)cc1)c1ccccn1", "note": "(stereo not shown) [rosiglitazone]", "values": [
      {"measurement": "effect on resistin gene expression (mRNA) in LPS-stimulated human macrophages", "result": "down-regulated; also recorded: suppresses resistin mRNA"}
    ]}
  ]
}
